Results as given in the supplement of paper PMC12595434, “Development of retinoid nuclear receptor pathway antagonists through targeting aldehyde dehydrogenase 1A3” (iScience, 2025).
Some of the results follow. The data scatter; read single values as rough.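 Many melting curves are irregular; where none melted, Tm was taken as 64 °C.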

Protein sequences, listed by entry. Tags and fused reporters are not part of them. Lines headed by an entry give the natural chain unless they say otherwise; changes in a name come on top.
UniProt Q9NSA3: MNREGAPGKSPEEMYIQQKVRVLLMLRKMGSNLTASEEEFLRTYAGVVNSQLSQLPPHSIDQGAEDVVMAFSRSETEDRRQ
UniProt Q9NRG7: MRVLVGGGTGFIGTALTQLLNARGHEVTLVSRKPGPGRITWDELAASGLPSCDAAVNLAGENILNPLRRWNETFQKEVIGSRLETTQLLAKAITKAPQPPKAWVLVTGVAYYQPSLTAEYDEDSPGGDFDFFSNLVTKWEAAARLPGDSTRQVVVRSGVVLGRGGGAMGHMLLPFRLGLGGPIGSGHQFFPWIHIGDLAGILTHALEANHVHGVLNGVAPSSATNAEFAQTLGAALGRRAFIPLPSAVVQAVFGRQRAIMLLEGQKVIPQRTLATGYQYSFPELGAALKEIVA
UniProt Q9NPD3, whole entry: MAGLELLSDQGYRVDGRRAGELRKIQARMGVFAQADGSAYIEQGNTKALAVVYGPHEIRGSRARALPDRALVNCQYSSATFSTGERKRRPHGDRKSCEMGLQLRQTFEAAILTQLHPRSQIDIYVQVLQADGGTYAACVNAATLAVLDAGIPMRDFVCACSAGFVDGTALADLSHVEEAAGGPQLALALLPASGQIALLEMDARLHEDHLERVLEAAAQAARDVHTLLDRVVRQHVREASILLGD
UniProt Q9NR46: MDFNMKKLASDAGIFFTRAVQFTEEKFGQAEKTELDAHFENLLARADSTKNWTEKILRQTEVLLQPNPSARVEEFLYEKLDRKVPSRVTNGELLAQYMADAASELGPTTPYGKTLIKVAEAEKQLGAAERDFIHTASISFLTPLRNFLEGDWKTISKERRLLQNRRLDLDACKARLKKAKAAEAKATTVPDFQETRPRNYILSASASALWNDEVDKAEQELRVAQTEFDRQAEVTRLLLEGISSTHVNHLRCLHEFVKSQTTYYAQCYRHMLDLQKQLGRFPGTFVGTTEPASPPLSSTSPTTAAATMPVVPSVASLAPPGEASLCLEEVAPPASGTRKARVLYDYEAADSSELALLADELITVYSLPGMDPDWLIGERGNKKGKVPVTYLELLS
UniProt Q9NUI1: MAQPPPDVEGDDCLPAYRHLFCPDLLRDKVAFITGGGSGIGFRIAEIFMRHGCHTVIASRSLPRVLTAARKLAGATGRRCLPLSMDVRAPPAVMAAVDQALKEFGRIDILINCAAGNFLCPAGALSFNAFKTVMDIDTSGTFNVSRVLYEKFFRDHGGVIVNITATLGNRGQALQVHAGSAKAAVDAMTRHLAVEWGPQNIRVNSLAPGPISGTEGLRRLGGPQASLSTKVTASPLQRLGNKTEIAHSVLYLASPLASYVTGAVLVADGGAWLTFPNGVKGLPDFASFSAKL
UniProt Q9H8Y5: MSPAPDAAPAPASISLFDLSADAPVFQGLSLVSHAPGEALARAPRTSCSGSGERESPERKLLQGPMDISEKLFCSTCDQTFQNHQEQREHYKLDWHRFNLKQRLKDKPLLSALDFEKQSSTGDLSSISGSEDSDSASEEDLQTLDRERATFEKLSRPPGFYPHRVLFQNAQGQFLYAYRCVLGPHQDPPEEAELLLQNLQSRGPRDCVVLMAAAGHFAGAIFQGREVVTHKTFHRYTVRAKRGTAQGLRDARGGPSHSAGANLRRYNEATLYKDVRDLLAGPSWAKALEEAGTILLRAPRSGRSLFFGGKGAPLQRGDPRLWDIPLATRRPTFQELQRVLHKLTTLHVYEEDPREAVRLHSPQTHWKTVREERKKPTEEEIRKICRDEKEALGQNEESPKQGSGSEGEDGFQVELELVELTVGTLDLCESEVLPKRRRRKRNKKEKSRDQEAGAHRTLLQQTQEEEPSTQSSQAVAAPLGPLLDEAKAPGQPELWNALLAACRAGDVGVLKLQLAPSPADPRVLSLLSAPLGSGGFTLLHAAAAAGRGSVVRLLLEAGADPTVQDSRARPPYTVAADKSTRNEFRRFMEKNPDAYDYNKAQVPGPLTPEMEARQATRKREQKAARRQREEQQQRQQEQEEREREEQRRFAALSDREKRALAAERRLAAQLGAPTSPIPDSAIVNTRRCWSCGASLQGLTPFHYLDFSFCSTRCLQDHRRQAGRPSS
UniProt Q9H936: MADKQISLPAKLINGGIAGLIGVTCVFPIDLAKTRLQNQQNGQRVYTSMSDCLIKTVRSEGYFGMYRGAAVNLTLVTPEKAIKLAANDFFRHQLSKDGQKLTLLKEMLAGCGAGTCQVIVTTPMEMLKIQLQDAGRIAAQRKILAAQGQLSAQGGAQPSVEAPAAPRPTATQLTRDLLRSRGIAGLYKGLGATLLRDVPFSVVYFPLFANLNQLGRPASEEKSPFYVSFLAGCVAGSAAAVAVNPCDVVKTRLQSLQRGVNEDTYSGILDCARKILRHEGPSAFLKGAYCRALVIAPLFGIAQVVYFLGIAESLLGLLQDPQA
UniProt Q9HCE0: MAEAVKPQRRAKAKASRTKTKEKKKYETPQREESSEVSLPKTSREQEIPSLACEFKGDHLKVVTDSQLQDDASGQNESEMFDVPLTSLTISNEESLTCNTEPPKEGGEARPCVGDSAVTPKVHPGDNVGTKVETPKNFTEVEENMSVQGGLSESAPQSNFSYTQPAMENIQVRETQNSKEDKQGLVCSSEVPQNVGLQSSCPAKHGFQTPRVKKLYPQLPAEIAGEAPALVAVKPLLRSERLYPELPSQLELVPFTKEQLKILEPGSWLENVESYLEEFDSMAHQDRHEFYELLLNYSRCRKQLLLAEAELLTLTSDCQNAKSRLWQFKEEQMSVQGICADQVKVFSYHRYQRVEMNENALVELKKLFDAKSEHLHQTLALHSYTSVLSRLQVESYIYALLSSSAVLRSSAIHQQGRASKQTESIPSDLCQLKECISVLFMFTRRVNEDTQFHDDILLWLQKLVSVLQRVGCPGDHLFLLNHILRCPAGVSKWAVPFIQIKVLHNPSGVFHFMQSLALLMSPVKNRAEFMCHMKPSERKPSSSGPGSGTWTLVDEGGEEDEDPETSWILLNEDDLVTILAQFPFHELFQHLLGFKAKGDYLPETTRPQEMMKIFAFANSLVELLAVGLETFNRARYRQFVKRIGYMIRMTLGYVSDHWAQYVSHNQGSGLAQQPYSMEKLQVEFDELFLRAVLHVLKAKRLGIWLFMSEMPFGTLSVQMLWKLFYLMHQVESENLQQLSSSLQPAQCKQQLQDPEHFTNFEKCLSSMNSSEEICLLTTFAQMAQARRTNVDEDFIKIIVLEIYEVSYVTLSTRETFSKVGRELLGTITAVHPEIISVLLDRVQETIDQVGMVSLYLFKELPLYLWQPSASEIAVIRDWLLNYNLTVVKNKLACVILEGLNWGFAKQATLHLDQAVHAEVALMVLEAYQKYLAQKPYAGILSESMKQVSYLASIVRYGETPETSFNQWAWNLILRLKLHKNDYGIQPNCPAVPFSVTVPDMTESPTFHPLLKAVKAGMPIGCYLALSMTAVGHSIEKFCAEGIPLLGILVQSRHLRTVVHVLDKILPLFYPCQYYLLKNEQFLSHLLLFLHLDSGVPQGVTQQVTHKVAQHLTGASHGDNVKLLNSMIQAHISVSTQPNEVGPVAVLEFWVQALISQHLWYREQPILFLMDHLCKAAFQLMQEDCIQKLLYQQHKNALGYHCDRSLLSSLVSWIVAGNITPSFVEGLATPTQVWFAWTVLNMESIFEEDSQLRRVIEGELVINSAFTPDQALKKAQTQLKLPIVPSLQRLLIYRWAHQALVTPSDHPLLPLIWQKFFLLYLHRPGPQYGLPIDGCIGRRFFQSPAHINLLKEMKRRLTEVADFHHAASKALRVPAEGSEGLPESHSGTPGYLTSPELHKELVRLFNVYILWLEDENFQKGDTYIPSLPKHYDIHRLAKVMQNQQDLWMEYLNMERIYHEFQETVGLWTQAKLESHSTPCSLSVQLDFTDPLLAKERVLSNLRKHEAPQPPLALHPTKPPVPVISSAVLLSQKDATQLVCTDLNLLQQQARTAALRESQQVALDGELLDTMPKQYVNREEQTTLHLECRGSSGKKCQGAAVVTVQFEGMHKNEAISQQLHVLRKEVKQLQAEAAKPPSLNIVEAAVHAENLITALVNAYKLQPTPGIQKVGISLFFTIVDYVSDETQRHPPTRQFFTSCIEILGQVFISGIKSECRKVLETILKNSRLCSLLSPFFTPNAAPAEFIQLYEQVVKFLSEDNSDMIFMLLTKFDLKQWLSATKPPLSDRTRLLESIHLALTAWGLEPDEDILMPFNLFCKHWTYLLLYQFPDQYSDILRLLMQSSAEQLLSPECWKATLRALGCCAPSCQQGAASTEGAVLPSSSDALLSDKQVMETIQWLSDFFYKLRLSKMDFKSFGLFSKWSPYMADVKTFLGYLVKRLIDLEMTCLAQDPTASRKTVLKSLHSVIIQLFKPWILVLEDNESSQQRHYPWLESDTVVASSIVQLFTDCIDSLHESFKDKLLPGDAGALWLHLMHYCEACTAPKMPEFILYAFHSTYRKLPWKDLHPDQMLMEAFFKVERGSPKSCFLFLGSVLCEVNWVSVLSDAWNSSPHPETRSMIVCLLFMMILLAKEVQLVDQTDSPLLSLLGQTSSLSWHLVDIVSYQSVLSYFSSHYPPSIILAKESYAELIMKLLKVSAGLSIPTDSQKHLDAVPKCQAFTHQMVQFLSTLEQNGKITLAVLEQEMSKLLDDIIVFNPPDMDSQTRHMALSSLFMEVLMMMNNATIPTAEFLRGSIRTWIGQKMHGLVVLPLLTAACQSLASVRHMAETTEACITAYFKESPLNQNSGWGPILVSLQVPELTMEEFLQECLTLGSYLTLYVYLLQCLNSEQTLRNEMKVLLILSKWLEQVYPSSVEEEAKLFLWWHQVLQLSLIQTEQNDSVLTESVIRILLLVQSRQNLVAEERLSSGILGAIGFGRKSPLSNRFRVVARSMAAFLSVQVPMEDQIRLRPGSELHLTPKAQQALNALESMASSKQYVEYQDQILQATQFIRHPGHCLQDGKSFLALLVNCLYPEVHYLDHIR
UniProt Q9NSI2: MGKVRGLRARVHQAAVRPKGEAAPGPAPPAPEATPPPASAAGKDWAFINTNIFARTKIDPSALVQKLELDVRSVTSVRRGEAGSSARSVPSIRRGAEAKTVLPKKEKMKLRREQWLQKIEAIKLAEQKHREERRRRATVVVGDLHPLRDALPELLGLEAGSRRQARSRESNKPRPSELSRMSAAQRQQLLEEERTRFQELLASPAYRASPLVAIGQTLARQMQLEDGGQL
UniProt Q9NSV4, whole entry: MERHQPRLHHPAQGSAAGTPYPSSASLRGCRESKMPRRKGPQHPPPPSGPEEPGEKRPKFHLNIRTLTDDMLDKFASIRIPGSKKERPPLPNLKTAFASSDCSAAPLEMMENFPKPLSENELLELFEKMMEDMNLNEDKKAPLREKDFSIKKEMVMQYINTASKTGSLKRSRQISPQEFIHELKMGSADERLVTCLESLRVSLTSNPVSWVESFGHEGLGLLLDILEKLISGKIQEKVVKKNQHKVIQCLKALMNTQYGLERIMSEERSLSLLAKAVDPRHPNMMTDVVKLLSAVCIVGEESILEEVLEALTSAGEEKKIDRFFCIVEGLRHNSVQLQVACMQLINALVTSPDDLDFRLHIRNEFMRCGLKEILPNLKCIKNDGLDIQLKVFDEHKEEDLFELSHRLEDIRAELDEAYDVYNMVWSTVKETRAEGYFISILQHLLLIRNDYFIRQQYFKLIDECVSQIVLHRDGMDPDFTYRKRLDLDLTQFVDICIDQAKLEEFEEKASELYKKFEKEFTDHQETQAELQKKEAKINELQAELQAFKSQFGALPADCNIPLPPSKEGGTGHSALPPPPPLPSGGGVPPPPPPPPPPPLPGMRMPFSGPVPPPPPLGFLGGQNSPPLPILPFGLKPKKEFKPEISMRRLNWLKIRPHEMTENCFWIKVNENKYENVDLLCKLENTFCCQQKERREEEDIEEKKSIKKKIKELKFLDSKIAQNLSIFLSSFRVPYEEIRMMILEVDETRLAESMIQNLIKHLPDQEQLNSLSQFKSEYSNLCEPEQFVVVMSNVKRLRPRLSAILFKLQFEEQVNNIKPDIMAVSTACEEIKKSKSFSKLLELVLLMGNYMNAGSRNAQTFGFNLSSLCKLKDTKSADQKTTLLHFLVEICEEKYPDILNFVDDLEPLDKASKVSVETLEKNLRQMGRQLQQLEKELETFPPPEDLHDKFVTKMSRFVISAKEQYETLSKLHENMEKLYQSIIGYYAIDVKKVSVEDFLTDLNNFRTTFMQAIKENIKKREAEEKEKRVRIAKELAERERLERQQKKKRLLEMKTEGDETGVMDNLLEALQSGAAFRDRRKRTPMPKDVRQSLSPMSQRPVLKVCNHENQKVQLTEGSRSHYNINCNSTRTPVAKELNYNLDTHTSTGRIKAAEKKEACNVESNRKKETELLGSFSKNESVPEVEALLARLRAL
UniProt Q9NPA8: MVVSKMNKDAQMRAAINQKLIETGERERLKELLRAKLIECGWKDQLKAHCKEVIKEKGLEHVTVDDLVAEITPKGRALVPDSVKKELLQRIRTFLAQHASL
UniProt Q9NQP4, whole entry: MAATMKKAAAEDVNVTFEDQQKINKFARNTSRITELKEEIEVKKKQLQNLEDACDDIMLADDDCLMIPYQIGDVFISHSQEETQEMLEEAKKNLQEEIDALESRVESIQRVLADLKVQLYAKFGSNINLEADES

Compound: CCc1cnccc1C(=O)Nc1cc2c(cc1F)NC(=O)CC2
Assay: melting temperature shift (DMSO Tm minus MBE1-treated Tm) in cellular thermal proteome profiling; higher = less thermal stabilization by MBE1 (negative = stabilized by MBE1)
Details: A375; MBE1 concentration: 100 nM

In order of falling melting temperature shift:
1. UniProt Q9NSA3  2.09 °C
2. UniProt Q9HBD1  1.4 °C
3. GLOD4 (UniProt Q9HC38)  1.18 °C
4. MRPL44 (UniProt Q9H9J2)  1.01 °C
5. SDR39U1 (UniProt Q9NRG7)  0.971 °C
6. TBC1D23 (UniProt Q9NUY8)  0.94 °C
7. BIRC6 (UniProt Q9NR09)  0.898 °C
8. UniProt Q9HA92  0.729 °C
9. UniProt Q9NUB1  0.543 °C
10. EXOSC4 (UniProt Q9NPD3)  0.505 °C
11. UniProt Q9HBM6  0.499 °C
12. UniProt Q9HCJ0  0.452 °C
13. MRPL40 (UniProt Q9NQ50)  0.44 °C
14. TCP11L1 (UniProt Q9NUJ3)  0.207 °C
15. AAAS (UniProt Q9NRG9)  0.134 °C
16. SH3GLB2 (UniProt Q9NR46)  0.0733 °C
17. TYW1 (UniProt Q9NV66)  0.0672 °C
18. ATP13A1 (UniProt Q9HD20)  -0.0537 °C
19. DECR2 (UniProt Q9NUI1)  -0.0805 °C
20. NEK6 (UniProt Q9HC98)  -0.0977 °C
21. ANKZF1 (UniProt Q9H8Y5)  -0.296 °C
22. DDX19A (UniProt Q9NUU7)  -0.409 °C
23. CARS2 (UniProt Q9HA77)  -0.525 °C
24. TXLNG (UniProt Q9NUQ3)  -0.543 °C
25. LIN7C (UniProt Q9NUP9)  -0.586 °C
26. DDX28 (UniProt Q9NUL7)  -0.762 °C
27. ACTR5 (UniProt Q9H9F9)  -0.838 °C
28. GNB4 (UniProt Q9HAV0)  -0.934 °C
29. ATG3 (UniProt Q9NT62)  -1.07 °C
30. SLC25A22 (UniProt Q9H936)  -1.16 °C
31. UniProt Q9HCE0  -1.19 °C
32. TNS1 (UniProt Q9HBL0)  -1.32 °C
33. FAM207A (UniProt Q9NSI2)  -1.38 °C
34. IPPK (UniProt Q9H8X2)  -1.39 °C
35. DIAPH3 (UniProt Q9NSV4)  -2 °C
36. GPHN (UniProt Q9NQX3)  -2.18 °C
37. ENY2 (UniProt Q9NPA8)  -2.43 °C
38. PFDN4 (UniProt Q9NQP4)  -2.71 °C

Same assay, conditions: A375; MBE1 concentration: 1 uM

In order of falling melting temperature shift:
1. ENY2 (UniProt Q9NPA8)  6.26 °C
2. UniProt Q9HA92  1.87 °C
3. AAAS (UniProt Q9NRG9)  1.3 °C
4. BIRC6 (UniProt Q9NR09)  0.775 °C
5. MRPL44 (UniProt Q9H9J2)  0.653 °C
6. SDR39U1 (UniProt Q9NRG7)  0.568 °C
7. UniProt Q9HBD1  0.452 °C
8. EXOSC4 (UniProt Q9NPD3)  0.44 °C
9. UniProt Q9HCJ0  0.421 °C
10. TBC1D23 (UniProt Q9NUY8)  0.415 °C
11. ACTR5 (UniProt Q9H9F9)  0.327 °C
12. GLOD4 (UniProt Q9HC38)  0.293 °C
13. UniProt Q9NUB1  0.275 °C
14. NEK6 (UniProt Q9HC98)  0.275 °C
15. ATP13A1 (UniProt Q9HD20)  0.254 °C
16. MRPL40 (UniProt Q9NQ50)  0.244 °C
17. ATG3 (UniProt Q9NT62)  0.235 °C
18. TCP11L1 (UniProt Q9NUJ3)  0.141 °C
19. SH3GLB2 (UniProt Q9NR46)  0.0282 °C
20. LIN7C (UniProt Q9NUP9)  0.00611 °C
21. UniProt Q9HBM6  -0.0423 °C
22. CARS2 (UniProt Q9HA77)  -0.14 °C
23. TXLNG (UniProt Q9NUQ3)  -0.174 °C
24. FAM207A (UniProt Q9NSI2)  -0.232 °C
25. ANKZF1 (UniProt Q9H8Y5)  -0.268 °C
26. UniProt Q9HCE0  -0.36 °C
27. IPPK (UniProt Q9H8X2)  -0.391 °C
28. DIAPH3 (UniProt Q9NSV4)  -0.394 °C
29. DDX28 (UniProt Q9NUL7)  -0.564 °C
30. PFDN4 (UniProt Q9NQP4)  -0.638 °C
31. DECR2 (UniProt Q9NUI1)  -0.805 °C
32. TYW1 (UniProt Q9NV66)  -0.922 °C
33. DDX19A (UniProt Q9NUU7)  -0.928 °C
34. UniProt Q9NSA3  -1.04 °C
35. GPHN (UniProt Q9NQX3)  -1.1 °C
36. GNB4 (UniProt Q9HAV0)  -1.24 °C
37. SLC25A22 (UniProt Q9H936)  -1.4 °C
38. TNS1 (UniProt Q9HBL0)  -2.97 °C
